PubChem BioAssay AID504764, Drosophila RNAi Screening Center | 2011

Assay: 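Genome-wide screen for regulators of Notch-driven gene expression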 (primary screen)
Cells: Drosophila Kc167 cells
Reagents: long dsRNA against Drosophila genes
Timing: about 5 days (4 days dsRNA, then 24 h after transfection)
Conditions: transfection of constitutively active membrane-tethered Notch lacking the extracellular domain, read 24 h later
Read-out: 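Firefly luciferase from an E(spl)m3 reporter with active Notch, plus control-promoter and uninduced reporter wells for normalisation; unnormalised counts, duplicate wells a and b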
Scale: induced reporter light, run 1, well a and induced reporter light, run 1, well b: higher = more light from the Notch target reporter with active Notch; control promoter light, run 1, well a and control promoter light, run 1, well b: higher = more light from the viral control promoter (cell number, transfection, viability); uninduced reporter light, run 1, well a: higher = more light from the Notch target reporter without active Notch
Call rule: 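Wells with low control signal or poorly matching duplicates excluded; duplicates averaged; per source plate, z beyond ±2 for induced/control log2 ratio or beyond ±1.8 for induced/uninduced marks a hit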
Meaning of the calls: active = modifier hit (raised or lowered Notch signal); inactive = not a hit
In all, the deposit lists about 22,000 reagents; shown is a random part of those that have a named target and a result. In the full data, 403 (1.9%) were called active. 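Unnormalised raw counts per well; ratio z-scores behind the hit calls and whether each hit raises or lowers signal are not deposited.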 Reagents against one gene are numbered here. Names joined by + are all predicted targets of the reagent. Not stated in the record: the amount of reagent.

For Nepl17, the entry reads induced reporter light, run 1, well a = 1.34e5; induced reporter light, run 1, well b = 91690; control promoter light, run 1, well a = 1.79e5; control promoter light, run 1, well b = 1.64e5; uninduced reporter light, run 1, well a = 9560; inactive.
With knock-down of Klp31E the results were induced reporter light, run 1, well a = 2.23e5; induced reporter light, run 1, well b = 2.34e5; control promoter light, run 1, well a = 2.01e5; control promoter light, run 1, well b = 1.87e5; uninduced reporter light, run 1, well a = 15585; inactive.
Against frj, the values are induced reporter light, run 1, well a = 1.51e5; induced reporter light, run 1, well b = 1.68e5; control promoter light, run 1, well a = 1.69e5; control promoter light, run 1, well b = 1.66e5; uninduced reporter light, run 1, well a = 11850; inactive.
Psf2 showed induced reporter light, run 1, well a = 2.51e5; induced reporter light, run 1, well b = 2.13e5; control promoter light, run 1, well a = 2.65e5; control promoter light, run 1, well b = 2.01e5; uninduced reporter light, run 1, well a = 12755; inactive.
For Rel, the values are induced reporter light, run 1, well a = 1.14e5; induced reporter light, run 1, well b = 1.34e5; control promoter light, run 1, well a = 83525; control promoter light, run 1, well b = 83780; uninduced reporter light, run 1, well a = 9565; inactive.
Pgk gave induced reporter light, run 1, well a = 1.27e5; induced reporter light, run 1, well b = 97880; control promoter light, run 1, well a = 91925; control promoter light, run 1, well b = 54175; uninduced reporter light, run 1, well a = 9115; inactive.
Depletion of CG9132 resulted in: induced reporter light, run 1, well a = 1.80e5; induced reporter light, run 1, well b = 1.58e5; control promoter light, run 1, well a = 1.59e5; control promoter light, run 1, well b = 1.36e5; uninduced reporter light, run 1, well a = 12390; inactive.

Entries listed so far whose target name starts with P or p:
Psf2 → induced reporter light, run 1, well a = 2.51e5; induced reporter light, run 1, well b = 2.13e5; control promoter light, run 1, well a = 2.65e5; control promoter light, run 1, well b = 2.01e5; uninduced reporter light, run 1, well a = 12755; activity call = inactive
Pgk → induced reporter light, run 1, well a = 1.27e5; induced reporter light, run 1, well b = 97880; control promoter light, run 1, well a = 91925; control promoter light, run 1, well b = 54175; uninduced reporter light, run 1, well a = 9115; activity call = inactive

More entries:
For Tpc2, the entry reads induced reporter light, run 1, well a = 2.11e5; induced reporter light, run 1, well b = 2.02e5; control promoter light, run 1, well a = 1.68e5; control promoter light, run 1, well b = 1.89e5; uninduced reporter light, run 1, well a = 14360; inactive.
Depletion of stnB + stnA #1 gave: induced reporter light, run 1, well a = 2.63e5; induced reporter light, run 1, well b = 2.53e5; control promoter light, run 1, well a = 3.50e5; control promoter light, run 1, well b = 3.72e5; uninduced reporter light, run 1, well a = 12785; inactive.
Depletion of stnB + stnA #2 gave: induced reporter light, run 1, well a = 74570; induced reporter light, run 1, well b = 77965; control promoter light, run 1, well a = 1.05e5; control promoter light, run 1, well b = 91385; uninduced reporter light, run 1, well a = 7535; inactive.
stnB + stnA #3 showed induced reporter light, run 1, well a = 1.02e5; induced reporter light, run 1, well b = 86550; control promoter light, run 1, well a = 1.00e5; control promoter light, run 1, well b = 1.26e5; uninduced reporter light, run 1, well a = 9525; inactive.
Depletion of CG8066 gave: induced reporter light, run 1, well a = 2.60e5; induced reporter light, run 1, well b = 2.63e5; control promoter light, run 1, well a = 1.80e5; control promoter light, run 1, well b = 1.98e5; uninduced reporter light, run 1, well a = 18078; inactive.
